Laboratory results as given in patent publication US20090215883A1, “Pharmaceutical formulation comprising taxane, a solid composition of taxane, a process for preparing said solid composition of taxane, a solubilizing composition of said solid composition of taxane, and a kit for the injectable formulation of taxane” (ERIOCHEM S.A., priority 2006, published 2009).
The name of at least one read-out is uncertain.

Experiment: Reconstitution or solubilization assay in polysorbate 80:ethanol:water (Example 4)
Assay type: physicochemical
Details: 20 mg docetaxel; PS80:EtOH:water (25:9.75:65.25)

CC(=O)O[C@@]12CO[C@@H]1C[C@H](O)[C@@]1(C)C(=O)[C@H](O)C3=C(C)[C@@H](OC(=O)[C@H](O)[C@@H](NC(=O)OC(C)(C)C)c4ccccc4)C[C@@](O)([C@@H](OC(=O)c4ccccc4)[C@H]21)C3(C)C [commercial (anhydrous) docetaxel, docetaxel]
Solubilization in polysorbate 80:ethanol:water (25:9.75:65.25), result in words: not possible to dilute it
